Assay results taken from doi:10.1101/2021.07.30.454360.
Where two headings read alike, the source gives them in different places. Results are given in words; binding and its absence hold for the method and conditions named. In cells and extracts the contact can be indirect. A yes stands for co-enrichment or nearness to the bait. Other partners may have been found. For some of these results: A no says only that the protein was not detected with the bait. For some of these results: Sequences can lack the tags named with a protein.

The chains behind the UniProt entries cited, without tags or fusion partners.
UniProt P14652: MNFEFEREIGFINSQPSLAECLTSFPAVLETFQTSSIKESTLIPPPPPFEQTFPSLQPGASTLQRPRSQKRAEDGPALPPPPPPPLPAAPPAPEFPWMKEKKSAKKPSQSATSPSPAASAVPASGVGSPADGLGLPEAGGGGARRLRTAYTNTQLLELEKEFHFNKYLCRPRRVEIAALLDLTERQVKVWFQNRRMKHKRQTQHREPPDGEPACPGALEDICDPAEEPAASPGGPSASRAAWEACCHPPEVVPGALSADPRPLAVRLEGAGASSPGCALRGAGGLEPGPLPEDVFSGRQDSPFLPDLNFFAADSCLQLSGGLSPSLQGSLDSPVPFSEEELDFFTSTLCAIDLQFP
UniProt Q9UIH9: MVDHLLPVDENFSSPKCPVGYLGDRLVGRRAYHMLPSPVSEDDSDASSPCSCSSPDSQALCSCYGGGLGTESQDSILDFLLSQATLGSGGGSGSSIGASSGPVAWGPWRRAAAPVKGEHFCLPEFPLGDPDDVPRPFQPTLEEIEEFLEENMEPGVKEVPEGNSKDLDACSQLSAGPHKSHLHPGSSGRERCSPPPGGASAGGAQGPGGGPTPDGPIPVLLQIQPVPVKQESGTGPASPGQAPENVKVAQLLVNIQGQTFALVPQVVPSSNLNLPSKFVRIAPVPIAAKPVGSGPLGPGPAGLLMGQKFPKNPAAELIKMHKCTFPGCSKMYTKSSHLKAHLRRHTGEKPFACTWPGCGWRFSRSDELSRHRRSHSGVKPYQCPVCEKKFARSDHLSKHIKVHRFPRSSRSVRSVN
UniProt Q92793: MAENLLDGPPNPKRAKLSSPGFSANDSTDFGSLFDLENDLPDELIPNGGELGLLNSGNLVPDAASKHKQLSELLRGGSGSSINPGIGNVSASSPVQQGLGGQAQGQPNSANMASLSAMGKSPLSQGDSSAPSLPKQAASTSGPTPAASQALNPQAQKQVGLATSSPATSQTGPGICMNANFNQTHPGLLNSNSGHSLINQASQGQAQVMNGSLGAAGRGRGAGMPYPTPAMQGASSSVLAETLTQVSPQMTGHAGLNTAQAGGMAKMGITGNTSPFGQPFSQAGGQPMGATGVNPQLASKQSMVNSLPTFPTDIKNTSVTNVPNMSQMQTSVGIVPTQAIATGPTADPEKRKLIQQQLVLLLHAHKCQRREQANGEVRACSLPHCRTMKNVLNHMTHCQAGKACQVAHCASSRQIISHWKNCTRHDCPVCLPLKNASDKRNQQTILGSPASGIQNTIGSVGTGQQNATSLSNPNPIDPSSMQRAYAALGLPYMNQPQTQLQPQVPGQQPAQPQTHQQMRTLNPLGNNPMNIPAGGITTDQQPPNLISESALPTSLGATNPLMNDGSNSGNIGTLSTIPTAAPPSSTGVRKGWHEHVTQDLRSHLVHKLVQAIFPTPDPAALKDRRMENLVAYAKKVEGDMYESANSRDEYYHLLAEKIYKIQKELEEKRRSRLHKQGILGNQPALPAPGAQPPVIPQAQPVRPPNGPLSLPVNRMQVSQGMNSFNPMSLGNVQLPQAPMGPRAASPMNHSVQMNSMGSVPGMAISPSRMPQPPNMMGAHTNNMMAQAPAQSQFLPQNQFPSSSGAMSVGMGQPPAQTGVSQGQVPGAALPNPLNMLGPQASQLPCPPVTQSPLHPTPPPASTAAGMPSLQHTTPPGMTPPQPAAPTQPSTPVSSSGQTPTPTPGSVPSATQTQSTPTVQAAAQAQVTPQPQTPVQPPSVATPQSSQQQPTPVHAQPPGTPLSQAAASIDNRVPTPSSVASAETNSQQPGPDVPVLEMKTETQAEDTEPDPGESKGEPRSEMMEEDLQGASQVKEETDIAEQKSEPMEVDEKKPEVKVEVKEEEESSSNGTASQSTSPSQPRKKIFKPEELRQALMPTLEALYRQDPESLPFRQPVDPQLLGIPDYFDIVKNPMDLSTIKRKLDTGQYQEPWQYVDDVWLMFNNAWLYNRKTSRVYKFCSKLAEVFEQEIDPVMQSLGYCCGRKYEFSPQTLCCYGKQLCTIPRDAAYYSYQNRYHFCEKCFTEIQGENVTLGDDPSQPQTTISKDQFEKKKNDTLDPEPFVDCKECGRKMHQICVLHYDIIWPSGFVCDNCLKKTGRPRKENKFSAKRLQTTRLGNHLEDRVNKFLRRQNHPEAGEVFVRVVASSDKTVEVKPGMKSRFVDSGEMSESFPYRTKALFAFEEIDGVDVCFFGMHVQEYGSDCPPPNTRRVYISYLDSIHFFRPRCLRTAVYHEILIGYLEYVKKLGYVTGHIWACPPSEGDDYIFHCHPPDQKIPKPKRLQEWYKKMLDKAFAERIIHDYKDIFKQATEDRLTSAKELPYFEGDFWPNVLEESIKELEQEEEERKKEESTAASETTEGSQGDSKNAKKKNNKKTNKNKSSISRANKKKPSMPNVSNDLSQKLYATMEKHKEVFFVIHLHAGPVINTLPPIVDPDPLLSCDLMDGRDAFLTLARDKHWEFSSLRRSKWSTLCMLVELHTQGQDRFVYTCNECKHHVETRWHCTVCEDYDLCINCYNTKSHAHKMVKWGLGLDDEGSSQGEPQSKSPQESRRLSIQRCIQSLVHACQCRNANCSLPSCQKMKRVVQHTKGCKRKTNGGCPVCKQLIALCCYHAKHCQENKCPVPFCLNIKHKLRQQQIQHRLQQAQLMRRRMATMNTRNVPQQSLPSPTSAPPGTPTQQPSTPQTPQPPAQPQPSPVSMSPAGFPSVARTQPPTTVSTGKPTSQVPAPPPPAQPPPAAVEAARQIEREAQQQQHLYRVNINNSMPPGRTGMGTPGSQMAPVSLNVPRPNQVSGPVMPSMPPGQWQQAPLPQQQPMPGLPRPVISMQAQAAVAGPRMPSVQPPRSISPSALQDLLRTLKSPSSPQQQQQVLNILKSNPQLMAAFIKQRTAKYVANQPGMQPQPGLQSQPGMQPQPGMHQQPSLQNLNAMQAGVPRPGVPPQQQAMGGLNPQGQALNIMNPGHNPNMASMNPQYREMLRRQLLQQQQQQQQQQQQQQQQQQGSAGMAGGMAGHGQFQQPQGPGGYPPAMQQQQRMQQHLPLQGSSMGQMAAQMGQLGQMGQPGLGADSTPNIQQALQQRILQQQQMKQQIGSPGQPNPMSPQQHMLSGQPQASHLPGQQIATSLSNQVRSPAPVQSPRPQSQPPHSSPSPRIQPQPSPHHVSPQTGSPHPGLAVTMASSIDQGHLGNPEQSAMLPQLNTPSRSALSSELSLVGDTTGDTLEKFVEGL
UniProt Q9H2F5: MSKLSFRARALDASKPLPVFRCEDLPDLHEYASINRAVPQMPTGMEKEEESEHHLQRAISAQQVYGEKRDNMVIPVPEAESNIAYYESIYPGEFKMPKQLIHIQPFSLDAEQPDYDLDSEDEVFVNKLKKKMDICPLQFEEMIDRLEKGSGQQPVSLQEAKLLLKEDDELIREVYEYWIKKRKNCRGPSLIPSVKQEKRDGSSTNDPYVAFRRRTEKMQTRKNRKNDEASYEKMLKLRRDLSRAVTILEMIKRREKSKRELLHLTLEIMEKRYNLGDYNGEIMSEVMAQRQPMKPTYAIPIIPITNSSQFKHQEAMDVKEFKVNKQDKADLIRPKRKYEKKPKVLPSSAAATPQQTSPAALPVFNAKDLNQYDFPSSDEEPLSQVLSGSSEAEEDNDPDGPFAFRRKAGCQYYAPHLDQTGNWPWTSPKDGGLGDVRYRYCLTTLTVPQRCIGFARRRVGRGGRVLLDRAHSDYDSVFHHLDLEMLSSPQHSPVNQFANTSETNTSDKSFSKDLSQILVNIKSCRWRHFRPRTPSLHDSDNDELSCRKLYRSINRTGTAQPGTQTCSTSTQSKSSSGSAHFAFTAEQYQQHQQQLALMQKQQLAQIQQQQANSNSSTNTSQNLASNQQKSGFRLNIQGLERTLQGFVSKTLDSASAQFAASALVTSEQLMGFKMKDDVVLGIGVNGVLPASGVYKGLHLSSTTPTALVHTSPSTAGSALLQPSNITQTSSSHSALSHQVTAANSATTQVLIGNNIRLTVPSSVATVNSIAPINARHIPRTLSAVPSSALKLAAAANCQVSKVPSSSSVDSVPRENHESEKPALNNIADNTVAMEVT
UniProt Q09472: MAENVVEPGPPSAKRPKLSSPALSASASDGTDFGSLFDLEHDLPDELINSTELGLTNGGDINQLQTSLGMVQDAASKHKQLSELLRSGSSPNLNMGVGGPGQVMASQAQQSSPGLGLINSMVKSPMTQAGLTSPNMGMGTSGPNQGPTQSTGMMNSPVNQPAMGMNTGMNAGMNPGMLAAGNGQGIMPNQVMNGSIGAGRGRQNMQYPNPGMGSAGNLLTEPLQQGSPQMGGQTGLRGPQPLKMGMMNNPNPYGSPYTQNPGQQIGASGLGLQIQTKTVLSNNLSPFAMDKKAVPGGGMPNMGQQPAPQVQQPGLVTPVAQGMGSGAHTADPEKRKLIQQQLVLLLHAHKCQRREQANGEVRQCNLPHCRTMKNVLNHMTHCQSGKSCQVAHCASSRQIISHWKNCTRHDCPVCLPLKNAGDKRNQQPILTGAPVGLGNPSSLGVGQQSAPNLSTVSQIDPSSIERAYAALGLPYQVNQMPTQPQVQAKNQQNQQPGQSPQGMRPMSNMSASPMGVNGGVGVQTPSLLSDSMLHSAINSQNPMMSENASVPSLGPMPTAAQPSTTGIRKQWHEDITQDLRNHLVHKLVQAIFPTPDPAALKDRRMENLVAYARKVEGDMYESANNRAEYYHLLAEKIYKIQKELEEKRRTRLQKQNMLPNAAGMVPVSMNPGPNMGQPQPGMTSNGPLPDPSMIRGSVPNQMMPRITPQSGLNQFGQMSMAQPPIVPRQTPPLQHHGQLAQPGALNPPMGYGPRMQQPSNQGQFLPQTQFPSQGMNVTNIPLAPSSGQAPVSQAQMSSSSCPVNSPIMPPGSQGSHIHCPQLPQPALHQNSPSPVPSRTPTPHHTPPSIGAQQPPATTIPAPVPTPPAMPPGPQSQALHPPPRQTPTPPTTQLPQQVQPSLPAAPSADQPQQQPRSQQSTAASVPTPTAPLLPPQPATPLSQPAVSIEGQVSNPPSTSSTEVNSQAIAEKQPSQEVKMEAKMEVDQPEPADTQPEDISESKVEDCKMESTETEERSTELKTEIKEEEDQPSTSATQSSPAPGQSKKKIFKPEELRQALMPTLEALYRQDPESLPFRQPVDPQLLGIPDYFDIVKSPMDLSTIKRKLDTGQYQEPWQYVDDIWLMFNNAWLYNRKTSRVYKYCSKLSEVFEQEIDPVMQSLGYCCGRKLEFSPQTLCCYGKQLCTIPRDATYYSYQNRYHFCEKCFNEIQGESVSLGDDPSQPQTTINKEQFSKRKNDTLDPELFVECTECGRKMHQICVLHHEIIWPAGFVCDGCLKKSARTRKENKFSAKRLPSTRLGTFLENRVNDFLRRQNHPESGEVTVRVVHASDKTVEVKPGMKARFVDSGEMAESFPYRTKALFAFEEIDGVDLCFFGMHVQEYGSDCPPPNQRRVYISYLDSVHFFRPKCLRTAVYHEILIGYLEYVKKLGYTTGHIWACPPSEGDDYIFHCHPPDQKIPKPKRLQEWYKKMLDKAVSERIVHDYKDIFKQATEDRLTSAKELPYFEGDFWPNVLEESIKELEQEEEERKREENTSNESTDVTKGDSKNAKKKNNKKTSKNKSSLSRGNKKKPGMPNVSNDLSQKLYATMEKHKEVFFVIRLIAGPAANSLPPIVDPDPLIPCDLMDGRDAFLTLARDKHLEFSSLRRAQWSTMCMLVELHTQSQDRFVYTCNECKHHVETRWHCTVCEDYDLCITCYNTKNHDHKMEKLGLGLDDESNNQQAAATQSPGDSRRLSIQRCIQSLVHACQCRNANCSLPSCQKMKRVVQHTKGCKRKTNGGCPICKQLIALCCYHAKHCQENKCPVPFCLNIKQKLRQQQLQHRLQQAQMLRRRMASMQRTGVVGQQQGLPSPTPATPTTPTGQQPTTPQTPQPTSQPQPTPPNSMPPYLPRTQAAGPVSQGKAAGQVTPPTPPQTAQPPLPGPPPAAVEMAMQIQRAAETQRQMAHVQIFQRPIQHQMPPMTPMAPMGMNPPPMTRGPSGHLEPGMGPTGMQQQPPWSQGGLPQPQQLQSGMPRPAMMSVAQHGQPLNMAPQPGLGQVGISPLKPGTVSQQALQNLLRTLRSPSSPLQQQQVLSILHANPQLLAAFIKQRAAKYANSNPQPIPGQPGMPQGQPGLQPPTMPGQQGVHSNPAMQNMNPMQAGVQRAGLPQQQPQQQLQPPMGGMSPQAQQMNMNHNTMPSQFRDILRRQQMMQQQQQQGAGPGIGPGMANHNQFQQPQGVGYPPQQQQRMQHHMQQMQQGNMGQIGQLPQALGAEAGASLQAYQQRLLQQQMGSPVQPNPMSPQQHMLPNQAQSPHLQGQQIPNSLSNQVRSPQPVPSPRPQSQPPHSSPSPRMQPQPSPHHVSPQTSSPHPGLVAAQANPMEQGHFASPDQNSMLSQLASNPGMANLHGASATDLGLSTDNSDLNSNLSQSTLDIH

Assays:
[1] = target: SUZ12-BioID2-FLAG (human) (UniProt Q15022); assay: proximity labelling
[2] = target: HOXB2-BioID2-FLAG (human) (UniProt P14652); assay: proximity labelling
SOX7-BioID2-FLAG (human) = SOX7-BioID2-FLAG (human) (UniProt Q9BT81); assay: proximity labelling
[3] = target: KLF15-BioID2-FLAG (human) (UniProt Q9UIH9); assay: proximity labelling
SRF-BioID2-FLAG (human) [4] = target: T1, SRF-BioID2-FLAG (human) (UniProt P11831); assay: proximity labelling
T1 sequence: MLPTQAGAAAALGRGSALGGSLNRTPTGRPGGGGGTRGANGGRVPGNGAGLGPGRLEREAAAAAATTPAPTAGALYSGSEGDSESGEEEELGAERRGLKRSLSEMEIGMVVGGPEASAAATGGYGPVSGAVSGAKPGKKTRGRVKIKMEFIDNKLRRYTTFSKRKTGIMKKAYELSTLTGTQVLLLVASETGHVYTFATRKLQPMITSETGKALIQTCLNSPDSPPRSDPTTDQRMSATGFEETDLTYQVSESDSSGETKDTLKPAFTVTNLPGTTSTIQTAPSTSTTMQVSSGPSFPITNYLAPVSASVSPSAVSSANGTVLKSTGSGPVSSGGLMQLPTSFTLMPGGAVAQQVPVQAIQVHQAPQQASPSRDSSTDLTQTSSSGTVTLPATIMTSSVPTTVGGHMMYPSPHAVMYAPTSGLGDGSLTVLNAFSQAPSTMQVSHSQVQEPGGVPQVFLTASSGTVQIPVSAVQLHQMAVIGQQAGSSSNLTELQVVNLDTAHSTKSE

[5] = target: T2, SS18L2-BioID2-FLAG (human) (UniProt Q9UHA2); assay: affinity purification with mass spectrometry + proximity labelling
T2 sequence: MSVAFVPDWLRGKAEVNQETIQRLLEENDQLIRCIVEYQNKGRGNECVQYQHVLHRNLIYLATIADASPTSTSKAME

KLF6-BioID2-FLAG (human) = KLF6-BioID2-FLAG (human) (UniProt Q99612); assay: proximity labelling
[6] = target: T3, SPDYE4-BioID2-FLAG (human) (UniProt A6NLX3); assay: affinity purification with mass spectrometry + proximity labelling
T3 sequence: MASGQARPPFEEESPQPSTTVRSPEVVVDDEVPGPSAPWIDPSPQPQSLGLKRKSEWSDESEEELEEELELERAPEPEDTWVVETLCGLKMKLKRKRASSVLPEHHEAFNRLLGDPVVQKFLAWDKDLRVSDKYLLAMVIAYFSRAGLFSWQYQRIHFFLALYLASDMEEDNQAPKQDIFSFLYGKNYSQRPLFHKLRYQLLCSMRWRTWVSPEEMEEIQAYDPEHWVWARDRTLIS

[7] = target: T4, FAM90A1-BioID2-FLAG (human) (UniProt Q86YD7); assay: as above
T4 sequence: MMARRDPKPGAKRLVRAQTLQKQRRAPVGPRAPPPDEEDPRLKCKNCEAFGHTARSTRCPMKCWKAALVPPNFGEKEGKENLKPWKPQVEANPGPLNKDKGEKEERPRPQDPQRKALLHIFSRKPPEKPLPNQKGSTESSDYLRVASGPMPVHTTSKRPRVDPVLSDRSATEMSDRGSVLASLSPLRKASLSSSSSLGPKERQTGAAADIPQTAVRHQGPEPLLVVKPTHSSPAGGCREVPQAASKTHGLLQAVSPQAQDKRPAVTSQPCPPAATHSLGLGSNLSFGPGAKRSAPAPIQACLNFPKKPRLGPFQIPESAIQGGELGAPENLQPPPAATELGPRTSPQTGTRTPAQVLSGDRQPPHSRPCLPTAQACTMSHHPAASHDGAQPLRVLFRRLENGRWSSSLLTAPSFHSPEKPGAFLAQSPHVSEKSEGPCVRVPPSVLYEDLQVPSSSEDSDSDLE

SRF-BioID2-FLAG (human) [8] = target: T1, SRF-BioID2-FLAG (human); assay: proximity labelling; remark: listed apart in the source

C10orf12 (from UniProt Q96JN0-3)
binding [1]: binds

CBP (from UniProt Q92793 1-2442)
binding [2]: binds
binding (SOX7-BioID2-FLAG (human)): binds
binding [3]: binds
binding (SRF-BioID2-FLAG (human) [4]): no binding

SMARCA4 (from UniProt P51532 1-1647)
binding [5]: binds

EPC1 (from UniProt Q9H2F5 1-836)
binding (KLF6-BioID2-FLAG (human)): binds

BRD2 (from UniProt P25440 1-801)
binding [6]: binds
binding [7]: binds

SMARCA2 (from UniProt P51531 1-1590)
binding [5]: binds

p300 (from UniProt Q09472 1-2414)
binding [2]: binds
binding (SOX7-BioID2-FLAG (human)): binds
binding [3]: binds
binding (SRF-BioID2-FLAG (human) [4]): no binding

MTF2/PCL2 (from UniProt Q9Y483 1-593)
binding [1]: binds

B1: ELK1 (protein, UniProt P19419 1-428)
chain: MDPSVTLWQFLLQLLREQGNGHIISWTSRDGGEFKLVDAEEVARLWGLRKNKTNMNYDKLSRALRYYYDKNIIRKVSGQKFVYKFVSYPEVAGCSTEDCPPQPEVSVTSTMPNVAPAAIHAAPGDTVSGKPGTPKGAGMAGPGGLARSSRNEYMRSGLYSTFTIQSLQPQPPPHPRPAVVLPSAAPAGAAAPPSGSRSTSPSPLEACLEAEEAGLPLQVILTPPEAPNLKSEELNVEPGLGRALPPEVKVEGPKEELEVAGERGFVPETTKAEPEVPPQEGVPARLPAVVMDTAGQAGGHAASSPEISQPQKGRKPRDLELPLSPSLLGGPGPERTPGSGSGSGLQAPGPALTPSLLPTHTLTPVLLTPSSLPPSIHFWSTLSPIAPRSPAKLSFQFPSSGSAQVHIPSISVDGLSTPVVLSPGPQKP
binding (SRF-BioID2-FLAG (human) [8]): binds
